Measured values published in article PMC4299515.
These are yes or no findings as the source states them, for the method shown. Some results given as binding are weak or reduced against the parent protein; the word gives no strength. For some of these results: Sequences can lack the tags named with a protein.

Amino acid sequences for entries named in this document (tags omitted). A change or cut given only in a name is not applied to a line headed by its entry.
UniProt Q61686: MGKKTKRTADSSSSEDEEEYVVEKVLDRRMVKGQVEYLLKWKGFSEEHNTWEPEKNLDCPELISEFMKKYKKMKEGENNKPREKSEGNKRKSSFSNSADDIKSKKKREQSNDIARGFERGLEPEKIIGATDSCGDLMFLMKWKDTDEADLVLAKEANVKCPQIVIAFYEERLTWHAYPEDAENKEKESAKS
UniProt P83917: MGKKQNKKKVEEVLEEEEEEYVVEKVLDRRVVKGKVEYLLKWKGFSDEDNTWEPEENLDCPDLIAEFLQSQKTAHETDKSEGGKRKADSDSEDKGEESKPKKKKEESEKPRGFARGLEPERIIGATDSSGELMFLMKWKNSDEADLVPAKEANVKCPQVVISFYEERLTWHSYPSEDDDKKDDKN
UniProt P23198: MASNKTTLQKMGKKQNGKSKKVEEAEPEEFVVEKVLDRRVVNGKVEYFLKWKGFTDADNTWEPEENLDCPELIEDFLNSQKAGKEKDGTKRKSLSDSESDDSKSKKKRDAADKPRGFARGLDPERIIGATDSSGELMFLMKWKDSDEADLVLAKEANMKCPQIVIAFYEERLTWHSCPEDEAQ

How the values were obtained:
[1] = molecular target: HP1α, GFP- or RFP-tagged, in NIH-3T3 cells (UniProt Q61686); assay: fluorescence cross correlation spectroscopy (FCCS); soluble nucleoplasmic complexes of GFP- and RFP-labelled proteins in living NIH-3T3 cells
[2] = molecular target: T1, SUV39H1, GFP- or RFP-tagged, in U2OS cells (F2H) (UniProt O54864); assay: two-hybrid; fluorescent two-hybrid (F2H) in living human U2OS cells: GFP-tagged protein tethered to lac-operator arrays via GBP-LacI, recruitment of the RFP-tagged protein seen by colocalization
T1 sequence: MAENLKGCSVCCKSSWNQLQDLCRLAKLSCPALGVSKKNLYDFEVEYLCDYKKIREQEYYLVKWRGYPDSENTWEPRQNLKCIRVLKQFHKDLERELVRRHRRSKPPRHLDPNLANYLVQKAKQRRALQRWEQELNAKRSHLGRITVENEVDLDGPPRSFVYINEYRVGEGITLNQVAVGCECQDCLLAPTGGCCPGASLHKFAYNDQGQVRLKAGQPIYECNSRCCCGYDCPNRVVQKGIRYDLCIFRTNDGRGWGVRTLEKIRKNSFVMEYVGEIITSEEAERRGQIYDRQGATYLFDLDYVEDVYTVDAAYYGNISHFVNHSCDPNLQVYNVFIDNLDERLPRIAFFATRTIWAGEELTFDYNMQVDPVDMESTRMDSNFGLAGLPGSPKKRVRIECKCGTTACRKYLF

binding [1] | binding [2] | Substance
binds | – | HP1α, GFP- or RFP-tagged, in NIH-3T3 cells (from UniProt Q61686 1-191)
binds | – | RFP-HP1β in NIH-3T3 cells (from UniProt P83917 1-185)
– | binds | RFP-HP1β in U2OS cells (F2H) (from UniProt P83917 1-185)
binds | – | RFP-HP1γ in NIH-3T3 cells (from UniProt P23198 1-183)
